# Reference: PubChem BioAssay AID1688 (National Center for Advancing Translational Sciences (NCATS), 2009)
# Among all 220,000 compounds or so, about 2,400 (1.1%) were called active. Inconclusive results, whose numbers are uncertain, are shown with a selection of clear calls. The call rests on the fitted dose curve; in most records, active means well fitted inhibition curve with a large enough effect; inconclusive means small, poorly fitted or top-dose-only effect, or effect the other way; inactive means no such curve, though single readings can be large or run the other way. Where the call is inconclusive, the potency comes from a doubtful curve fit.
# Assay: qHTS Multiplex Assay to Identify Dual Action Probes in a Cell Model of Huntington: Aggregate Formation (GFP); further: nearly all actives have a fitted effect of over 60% in size
# Settings: PC12 HttQ103-GFP aggregates, Acumen cytometry, 40 h; activity change, negative = inhibition: at 46.1 µM (top of the series) unless noted
# Outline: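 Aggregate formation scored by laser-scanning cytometer (488 excitation, 500–530 emission) in lysed PC12 cells expressing Q103-GFP after 100 nM tebufenozide induction; library tested in dose series, with ATPLite reagent added in the multiplex.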
# On the % scale 0 is the no-effect control and ±100 the full control effect; potency means the concentration at half of the fitted maximal effect.
Structure (SMILES),Potency,"activity change, negative = inhibition"
O=C(N/N=C/c1cc(Br)ccc1O)C(c1ccncc1)N1CCOCC1 (stereo not drawn),"inconclusive: 2.82 µM [inhibitor, full curve]",–
COCCN(C(=O)CCl)C(C(=O)NC1CCCCC1)c1ccccc1C (stereo not drawn),"inconclusive: 0.398 µM [inhibitor, partial curve]",–
COc1ccc(NC(=O)CN(C)C(=O)c2oc3ccccc3c2C)cc1,"inconclusive: 35.5 µM [activator, partial curve, poor fit]",–
O=C1c2cccnc2C(=O)N1c1ccccc1-c1ccccc1,"inconclusive: 3.16 µM [inhibitor, partial curve, poor fit]",–
COc1ccc(C(=O)Nc2ccccc2C(=O)N/N=C/c2ccccn2)cc1OC,"inconclusive: 6.31 µM [inhibitor, single point]",–
CSc1ccc(/C=N/NC(=O)CN2CCN(Cc3ccc(C)cc3)CC2)cc1,"inconclusive: 5.62 µM [inhibitor, single point]",–
O=C(NC(=O)c1ccc(Cl)cc1)Nc1ccc(-c2cnco2)cc1,"inconclusive: 5.62 µM [activator, single point]",–
COc1ccc(C2CCCN2C(=O)Nc2cccc(C(C)=O)c2)cc1OC (stereo not drawn),"inconclusive: 1 µM [activator, full curve, poor fit]",–
Cc1cc(C(=O)C(=O)O)c(C)n1-c1ccc(Cl)c(Cl)c1,"inconclusive: 7.08 µM [activator, partial curve]",–
O=S(=O)(NC1CC1)c1ccc(S(=O)(=O)N2CCCc3ccccc32)cc1,active: 11.2 µM,–
C=CCSc1nc2c(c(=O)[nH]1)C(C(C)C)C(C#N)=C(N)O2 (stereo not drawn),"inconclusive: 35.5 µM [activator, single point]",–
COc1cc(-c2cccs2)cc(=O)c2c(C)oc(C)c12,inactive,–
O=C(COc1cc(Cl)c(Cl)cc1Cl)N1CCN(c2ccccn2)CC1,inactive,–
CCOC(=O)c1c(NC(=O)CSc2ncccn2)sc2c1CCN(Cc1ccccc1)C2,"inconclusive: 35.5 µM [inhibitor, single point]",–
CCN(CC)c1ccc2cc(-c3nc(-c4ccc(OC)cc4)cs3)c(=O)oc2c1,active: 2.82 µM,–
CCCCC(=O)Nc1ccc(C(=O)NCc2ccncc2)cc1,"inconclusive: 1 µM [activator, full curve, poor fit]",–
Cc1c(NC(=S)/C=C2\N(C)c3ccccc3C2(C)C)c(=O)n(-c2ccccc2)n1C,"inconclusive: 25.1 µM [inhibitor, single point]",–
CN(C)c1ccc(Nc2c3c4c(cccc4n(C)c2=O)C(=O)c2ccccc2-3)cc1,"inconclusive: 10 µM [inhibitor, partial curve]",–
CN1C(=O)C(Cl)(Cl)C(=O)c2ccccc21,"inconclusive: 35.5 µM [inhibitor, single point]",–
O=C(COC(=O)c1ccc([N+](=O)[O-])o1)c1ccccc1,inactive,–
CC(=O)NC(C)C(=O)OCc1ccc(Cl)cc1Cl (stereo not drawn),inactive,–
CCOC(=O)C(C)(C)N(Cc1ccc(C)cc1)S(=O)(=O)c1ccc(Cl)c([N+](=O)[O-])c1,"inconclusive: 0.891 µM [inhibitor, single point]",–

# 2 entries from above, with tabs:
Structure (SMILES)	Potency	activity change, negative = inhibition
COc1ccc(NC(=O)CN(C)C(=O)c2oc3ccccc3c2C)cc1	inconclusive: 35.5 µM [activator, partial curve, poor fit]	–
C=CCSc1nc2c(c(=O)[nH]1)C(C(C)C)C(C#N)=C(N)O2 (stereo not drawn)	inconclusive: 35.5 µM [activator, single point]	–

# Additional records:

Structure (SMILES),Potency,"activity change, negative = inhibition"
O=C(C1CCC1)N1CCc2cc(S(=O)(=O)Nc3ccc4c(c3)OCCO4)ccc21,"inconclusive: 12.6 µM [inhibitor, partial curve]",–
CCc1ccc2nc3sc(C(=O)O)cc3cc2c1,–,inactive: -4.78% [at 9.22 µM]
CN(C(=O)CCl)C1CCCc2ccccc21 (stereo not drawn),"inconclusive: 35.5 µM [inhibitor, single point]",–
COc1cccc(C(=O)N2CCOCC2)c1OC,–,inactive: 13.9% [at 9.22 µM]
c1nc(NC2CCCCC2)c2[nH]cnc2n1,"inconclusive: 25.1 µM [inhibitor, single point]",–
O=C1NC2(CCCCC2)Oc2ccccc21,inactive,–
O=C(/C=C\c1cn(-c2ccccc2)nc1-c1ccc2c(c1)OCCO2)N1CCOCC1,"inconclusive: 35.5 µM [inhibitor, single point]",–
C=CCn1nc([N+](=O)[O-])nc1Sc1cccc2cccnc12,"inconclusive: 28.2 µM [inhibitor, single point]",–
CCCCc1nc(NCCNC(=O)c2ccccc2)c(C#N)c2c1CSC(C)(C)C2,"inconclusive: 35.5 µM [inhibitor, single point]",–
CCn1cnc2cc(NCc3nc4ccccc4n3C)ccc21,"inconclusive: 5.01 µM [activator, single point]",–
O=C(c1ccco1)N1CCN(C(=O)C2CC2)CC1,inactive,–
CC(OC(=O)c1cccc(NS(C)(=O)=O)c1)C(=O)Nc1ccc(N2CCOCC2)cc1 (stereo not drawn),"inconclusive: 0.562 µM [inhibitor, full curve]",–
COCCNC(=S)NCc1ccc2[nH]c3c(c2c1)CCCC3,inactive,–
CCOc1ccccc1N1CCN(C(=O)c2cccc(-c3ccc(O)cc3)c2)CC1,"inconclusive: 25.1 µM [inhibitor, single point]",–
Cc1cc(C(C#N)c2ccccc2F)n2ncnc2n1 (stereo not drawn),–,inactive: 0% [at 9.22 µM]
O=C(NCc1ccccc1Cl)C1CCN(c2cnccn2)CC1,inactive,–
Cc1onc(-c2ccccc2)c1C(=O)N1CCCN(C(=O)c2c(-c3ccccc3)noc2C)CC1,"inconclusive: 0.562 µM [inhibitor, partial curve, poor fit]",–
CC[C@@H](C)[C@H](NC(=O)OC(C)(C)C)c1nnc(S(=O)(=O)Cc2cc(C)ccc2C)o1,"inconclusive: 25.1 µM [inhibitor, single point]",–
COC(=O)[C@@]1(Cc2ccc(F)cc2)[C@H]2c3cc(C(=O)N(C)C)n(Cc4ccccc4)c3C[C@H]2CN1C(=O)c1ccccc1,"inconclusive: 22.4 µM [inhibitor, single point]",–
O=S(=O)(NC1CCCCC1)c1cccc(-c2nnc(-c3ccccc3)o2)c1,"inconclusive: 22.4 µM [inhibitor, single point]",–
O=C(CSc1nccc2ccccc12)N1CCN(c2ccccn2)CC1,"inconclusive: 35.5 µM [activator, single point]",–
